Measured values taken from publication PMC7552054.
No constants are given. Whether binding was seen depends on the method and setting. Binding seen in cells or lysates may run through a third protein. Some binding calls cover weakened binding; strength is not graded here.

By UniProt entry, the sequences of proteins in these tests, tags left out. Residues count along the entry.
UniProt Q9HWC9: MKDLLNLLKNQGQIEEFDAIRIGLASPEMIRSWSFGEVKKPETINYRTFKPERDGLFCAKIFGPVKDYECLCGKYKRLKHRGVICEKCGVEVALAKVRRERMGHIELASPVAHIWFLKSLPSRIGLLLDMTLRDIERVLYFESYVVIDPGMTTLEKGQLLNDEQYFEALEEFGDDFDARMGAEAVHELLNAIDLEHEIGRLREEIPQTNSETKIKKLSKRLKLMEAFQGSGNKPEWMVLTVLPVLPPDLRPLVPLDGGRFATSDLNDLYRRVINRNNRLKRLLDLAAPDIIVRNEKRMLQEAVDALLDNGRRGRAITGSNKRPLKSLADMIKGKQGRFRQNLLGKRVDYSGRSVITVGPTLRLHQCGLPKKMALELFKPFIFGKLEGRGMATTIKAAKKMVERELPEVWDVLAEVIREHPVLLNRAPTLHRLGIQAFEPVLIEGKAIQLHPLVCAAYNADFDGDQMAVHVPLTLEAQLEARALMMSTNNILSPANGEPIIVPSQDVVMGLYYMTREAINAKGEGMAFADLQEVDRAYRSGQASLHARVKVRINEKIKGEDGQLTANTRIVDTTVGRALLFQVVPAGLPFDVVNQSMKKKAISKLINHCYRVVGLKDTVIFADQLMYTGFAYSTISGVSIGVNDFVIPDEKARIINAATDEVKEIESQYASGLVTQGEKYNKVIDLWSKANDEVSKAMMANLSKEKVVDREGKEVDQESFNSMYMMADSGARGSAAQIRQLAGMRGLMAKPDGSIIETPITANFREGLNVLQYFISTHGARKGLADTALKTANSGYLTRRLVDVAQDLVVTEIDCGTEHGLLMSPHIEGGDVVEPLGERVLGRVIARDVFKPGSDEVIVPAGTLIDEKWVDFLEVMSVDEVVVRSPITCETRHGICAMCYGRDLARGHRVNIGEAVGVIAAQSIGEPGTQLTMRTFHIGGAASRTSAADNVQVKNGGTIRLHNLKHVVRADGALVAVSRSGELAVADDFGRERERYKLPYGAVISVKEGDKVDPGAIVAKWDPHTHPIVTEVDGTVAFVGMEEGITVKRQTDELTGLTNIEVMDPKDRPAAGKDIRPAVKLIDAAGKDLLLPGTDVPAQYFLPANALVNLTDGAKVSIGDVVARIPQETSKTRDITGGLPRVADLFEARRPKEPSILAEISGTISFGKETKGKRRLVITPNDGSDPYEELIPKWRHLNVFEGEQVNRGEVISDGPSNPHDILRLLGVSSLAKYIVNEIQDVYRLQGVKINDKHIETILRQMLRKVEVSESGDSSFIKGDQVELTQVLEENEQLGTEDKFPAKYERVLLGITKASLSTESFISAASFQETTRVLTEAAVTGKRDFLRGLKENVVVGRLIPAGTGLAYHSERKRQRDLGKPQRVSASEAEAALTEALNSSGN
UniProt O52760, residues 1-244: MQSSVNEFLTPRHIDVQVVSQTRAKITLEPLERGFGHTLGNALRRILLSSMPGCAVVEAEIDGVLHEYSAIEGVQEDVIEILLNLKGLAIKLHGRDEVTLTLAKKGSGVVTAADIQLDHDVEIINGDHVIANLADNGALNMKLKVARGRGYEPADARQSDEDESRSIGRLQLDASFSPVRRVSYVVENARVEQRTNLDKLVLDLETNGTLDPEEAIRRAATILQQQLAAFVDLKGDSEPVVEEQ

Target: P. aeruginosa RNA polymerase β' subunit with a C-terminal Protein A tag (RpoC-Protein A) (P. aeruginosa PAO1) (UniProt Q9HWC9)
Test: pull-down

“N-terminal fragment of the α RNAP subunit (α NTD), cleavage product (from UniProt O52760 1-244) (domain or fragment)” was tested, and the binding was “binds”.
